Assay [1] has as its target T1, AD-HRt(mouse) (mouse) (UniProt Q61645).
T1 sequence (looked up): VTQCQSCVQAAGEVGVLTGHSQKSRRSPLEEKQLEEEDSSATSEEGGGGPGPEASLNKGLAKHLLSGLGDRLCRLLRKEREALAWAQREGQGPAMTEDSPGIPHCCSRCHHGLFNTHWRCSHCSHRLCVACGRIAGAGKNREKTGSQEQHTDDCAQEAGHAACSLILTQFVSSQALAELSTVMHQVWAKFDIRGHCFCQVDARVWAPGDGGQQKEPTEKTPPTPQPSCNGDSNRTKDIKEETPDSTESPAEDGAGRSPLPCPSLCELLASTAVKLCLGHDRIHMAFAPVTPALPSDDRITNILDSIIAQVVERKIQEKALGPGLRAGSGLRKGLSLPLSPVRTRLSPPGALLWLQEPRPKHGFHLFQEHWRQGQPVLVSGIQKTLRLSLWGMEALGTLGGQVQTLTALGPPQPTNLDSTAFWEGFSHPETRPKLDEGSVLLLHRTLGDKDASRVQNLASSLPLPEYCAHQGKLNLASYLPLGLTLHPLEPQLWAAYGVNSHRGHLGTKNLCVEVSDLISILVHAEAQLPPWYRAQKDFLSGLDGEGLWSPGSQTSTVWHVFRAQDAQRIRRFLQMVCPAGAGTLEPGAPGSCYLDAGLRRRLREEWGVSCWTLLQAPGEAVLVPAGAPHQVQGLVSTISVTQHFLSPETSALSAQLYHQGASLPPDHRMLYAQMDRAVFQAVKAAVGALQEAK
Nature of the assay: yeast two-hybrid, directed test AD-HRt(mouse) with BD-VDR(mouse).

Chains of the proteins cited; added tags and fusions are not shown. Lines headed by an entry give the natural chain unless they say otherwise; changes in a name come on top.
UniProt P04386: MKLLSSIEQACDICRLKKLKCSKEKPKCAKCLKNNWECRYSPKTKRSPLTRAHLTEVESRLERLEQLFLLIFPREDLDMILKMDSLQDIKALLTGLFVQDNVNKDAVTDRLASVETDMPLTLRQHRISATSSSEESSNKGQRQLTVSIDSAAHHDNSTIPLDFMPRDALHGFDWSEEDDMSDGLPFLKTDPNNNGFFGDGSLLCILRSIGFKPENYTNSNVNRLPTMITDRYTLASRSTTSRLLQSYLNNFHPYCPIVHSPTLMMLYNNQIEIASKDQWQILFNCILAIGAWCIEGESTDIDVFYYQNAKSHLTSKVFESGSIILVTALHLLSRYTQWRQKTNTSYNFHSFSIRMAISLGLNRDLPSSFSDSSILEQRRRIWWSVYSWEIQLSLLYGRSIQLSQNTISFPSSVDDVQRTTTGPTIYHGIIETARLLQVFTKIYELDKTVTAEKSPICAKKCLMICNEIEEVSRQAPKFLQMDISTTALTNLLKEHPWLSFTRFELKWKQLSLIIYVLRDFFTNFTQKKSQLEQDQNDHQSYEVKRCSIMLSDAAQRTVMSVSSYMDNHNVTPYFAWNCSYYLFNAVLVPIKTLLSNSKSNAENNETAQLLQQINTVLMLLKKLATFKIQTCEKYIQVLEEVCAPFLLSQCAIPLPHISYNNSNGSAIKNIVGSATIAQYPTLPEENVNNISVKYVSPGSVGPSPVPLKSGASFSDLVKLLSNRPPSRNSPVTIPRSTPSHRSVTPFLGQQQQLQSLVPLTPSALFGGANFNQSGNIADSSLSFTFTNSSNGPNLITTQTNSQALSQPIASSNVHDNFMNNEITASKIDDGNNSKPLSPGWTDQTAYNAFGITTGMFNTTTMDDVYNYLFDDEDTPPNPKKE

Assay [2] has as its target T1, AD-HRt(mouse) (mouse). The assay can be described thus: yeast two-hybrid, directed test.

No constants are given. Whether binding was seen depends on the method and setting. Some entries that bind do so weakly or less than the wild type. Tags and fused reporters may be left off the sequences shown.

In the case of “BD-VDR(mouse) (from UniProt P04386 1-147; P48281 1-422) (receptor)”, the binding result in the assay with AD-HRt(mouse) (mouse) [1] and with AD-HRt(mouse) (mouse) [2] was “binds” each time.
